Test results published in US11046715B2, “Boronic derivatives of hydroxamates as anticancer agents” (Xavier University of Louisiana, priority 2016, dated 2021).

Tested on: SK-OV-3: human ovarian cancer
Test: In vitro cytotoxicity / antiproliferation, SK-OV-3
Format: cell-based
Conditions: SK-OV-3, read-out: Antiproliferation activity (IC50)
Description: The in vitro cytotoxicity of boronic derivatives of hydroxamates was tested against various cancer cell lines; the results are provided in Table 1.

Structure (SMILES): O=C(CCCCCCC(=O)Nc1ccccc1)NO [Vorinostat, reference compound]
- IC50: 124 nM
